This data set is described as follows: Odor description of the prepared compound. The note with it: odour description printed after the preparation of the compound.
Take `CC1=CCCCCCCCCCOCC(=O)CC1` [C, 6-methyl-1-oxacyclohexadec-6-en-3-one]: the Odor entry is “Strong musk, ergon, powdery, creamy”.
For `O=C1CCC=CCCCCCCCCCOC1` [B, 1-oxacyclohexadec-6-en-3-one], the Odor result is given as “Musk, animalic”.
`O=C1COCC=CCCCCCCCCCOC1` [E, 1,5-dioxacycloheptadec-15-en-3-one]: the Odor result was “powdery, musky”.
Take `O=C1CCC=CCCCCCCCCOC1` [A, 1-oxacyclopentadec-6-en-3-one]: the Odor entry is “Creamy, animalic and musk”.

These data come from US20250049677A1, “Oxa-Macrocyclic Musk as Fragrance Compounds” (Symrise AG, priority 2021, published 2025).
